Source: patent US20130142802A1
These are yes or no findings as the source states them, for the method shown. Some entries that bind do so weakly or less than the wild type.

Protein sequences, listed by entry. Tags and fused reporters are not part of them. Lines headed by an entry give the natural chain unless they say otherwise; changes in a name come on top. Residues count along the entry.
UniProt P21802: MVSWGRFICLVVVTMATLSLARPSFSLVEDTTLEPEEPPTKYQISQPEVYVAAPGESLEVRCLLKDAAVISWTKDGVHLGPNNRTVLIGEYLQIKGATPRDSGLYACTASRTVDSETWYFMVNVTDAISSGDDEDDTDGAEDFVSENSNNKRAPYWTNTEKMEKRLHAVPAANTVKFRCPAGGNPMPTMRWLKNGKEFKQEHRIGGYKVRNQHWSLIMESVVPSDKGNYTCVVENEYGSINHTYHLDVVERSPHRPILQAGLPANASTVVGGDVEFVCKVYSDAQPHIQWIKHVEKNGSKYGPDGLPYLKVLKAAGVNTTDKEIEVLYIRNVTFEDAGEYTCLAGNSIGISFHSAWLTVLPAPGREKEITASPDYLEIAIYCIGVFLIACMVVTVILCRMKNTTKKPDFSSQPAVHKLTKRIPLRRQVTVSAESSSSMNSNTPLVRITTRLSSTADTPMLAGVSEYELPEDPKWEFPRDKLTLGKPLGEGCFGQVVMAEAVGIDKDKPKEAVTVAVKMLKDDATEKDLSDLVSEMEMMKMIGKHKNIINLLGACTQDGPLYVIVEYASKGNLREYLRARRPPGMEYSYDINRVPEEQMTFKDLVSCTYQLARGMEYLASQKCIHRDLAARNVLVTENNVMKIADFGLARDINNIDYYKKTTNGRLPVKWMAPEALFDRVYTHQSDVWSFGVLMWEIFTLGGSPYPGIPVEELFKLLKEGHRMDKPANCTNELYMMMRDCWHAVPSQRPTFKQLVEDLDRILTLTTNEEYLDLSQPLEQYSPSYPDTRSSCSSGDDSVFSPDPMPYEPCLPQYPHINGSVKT
Flag-FGFR2-IIIc expressed on CHO cells: residues 22-821 of P21802
FGFR2IIIc-Fc' (R&D Systems): residues 152-377 of P21802

Key:
FGFR2 IIIb-Fc (human) = assay: phage ELISA, plate coated with FGFR2 IIIb Fc fusion (whole extracellular domain)
[1] = target: Flag-FGFR2-IIIc expressed on CHO cells (human) (UniProt P21802); assay: immunocytochemical staining of CHO cells transiently expressing FGFR2IIIc
[2] = target: FGFR2IIIc-Fc' (R&D Systems) (UniProt P21802); assay: ELISA, coated Fc-fusion, hybridoma-conditioned medium

Binder	binding (FGFR2 IIIb-Fc (human))	binding [1]	binding [2]
human scFv clone 6, phage-displayed (scFv) scFv: QSVLTQPPSVSAAPGQKVTISCSGSSSNIGNNYVSWYQQLPGTAPKLLIYDNNKRPSGIPDRFSDSKSGTSATLGITGLQTGDEADYYCGTWDSSLSAVVFGGGTKLTVLGSGGSTITSYNVYYTKLSSSGTEVQLVQSGAEVKKPGSSVKVSCKASGGTFSSYAISWVRQAPGQGLEWMGRIIPILGIANYAQKFQGRVTITADKSTSTAYMELSSLRSEDTAVYYCARDPLLWSYFDYWGQGTLVTVSS	no binding	binds	
human scFv clone 6, soluble (scFv) scFv: QSVLTQPPSVSAAPGQKVTISCSGSSSNIGNNYVSWYQQLPGTAPKLLIYDNNKRPSGIPDRFSDSKSGTSATLGITGLQTGDEADYYCGTWDSSLSAVVFGGGTKLTVLGSGGSTITSYNVYYTKLSSSGTEVQLVQSGAEVKKPGSSVKVSCKASGGTFSSYAISWVRQAPGQGLEWMGRIIPILGIANYAQKFQGRVTITADKSTSTAYMELSSLRSEDTAVYYCARDPLLWSYFDYWGQGTLVTVSS		binds	
Atto-MuMab-02 (antibody, V domains shown) VH: EVQLQQSGAELARPGASVKLSCKTSGYTFTSYWMQWLKQRPGQGLEWIGAIHPGDGDTRYTQKFKGKATLTADKSSSTAYMQLSSLASEDSAVYYCARSDTGRYYGLDYWGQGTSVTVS VL: DIQMNQSPATLSVTPGETVSLSCRASQSIYKNLHWYQQKSHRSPRLLIKSTSDSISGIPSRFTGSGSGTDYTLSINSVKPEDEGIYYCLQGYSTPYTFGGGTKLEIKR			binds
